Source: PubChem BioAssay AID504791 (Drosophila RNAi Screening Center, 2011)

- Purpose: 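Factors in Argonaute-based small RNA production and activity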 (primary screen)
- System: Drosophila S2-derived reporter cells
- Reagents: long dsRNA against Drosophila genes, about 150-250 ng dsRNA per well (siRNA assay); about 80-120 ng (miRNA assay)
- Duration: about 5 days (siRNA assay); about 4 days (miRNA assay)
- Challenge: copper sulfate induction of reporters: 25 µM (siRNA assay); 200 mM stated (miRNA assay), 1-2 days before reading
- Measured: 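Dual luciferase assay: Renilla to firefly signal ratio in each well, scaled to the mean ratio of its plate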
- Rule for the call: 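First-pass picks had plate-scaled ratios over 1.5 for the siRNA assay, over 1.6 for the miRNA assay, or under 0.6; two distinct dsRNAs had to score alike on retest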
The deposit covers about 23,000 reagents; below is a random part of those with a known target gene and a result. In the full data, 199 (0.86%) were called active. 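Plate-scaled ratios behind the calls are not deposited; printed light signals are raw; many rows marked increased or decreased are still called inactive.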 Reagents against one gene are numbered here. A plus sign joins genes that one reagent is predicted to hit. The record does not give: the direction of the score.

gene knocked down | reagent no. | stable siRNA reporter change | miRNA reporter change | stable assay Renilla, run 1 (luminescence) | stable assay firefly, run 1 (luminescence) | Call
Gr68a (Gustatory receptor 68a) | 1 | – | – | 6087 | 3.65e5 | inactive
GstT3 (Glutathione S transferase T3) | 1 | – | – | 6387 | 3.52e5 | inactive
pths (porthos) | 1 | – | – | 5636 | 3.06e5 | inactive
Dg (Dystroglycan) | 1 | – | – | 6295 | 3.06e5 | inactive
lilli (lilliputian) | 1 | reporter ratio lowered past the hit cutoff | – | 8845 | 3.76e5 | active
tau | 1 | – | – | 5007 | 2.73e5 | inactive
tau | 2 | – | – | 4667 | 3.19e5 | inactive
CG10102 (retired record) | 1 | – | – | 8698 | 4.88e5 | inactive
CG13319 | 1 | – | – | 3196 | 3.38e5 | inactive
Rbpn-5 (Rabaptin-5) | 1 | – | – | 27616 | 9.69e5 | inactive
Mst57Db (Male-specific RNA 57Db) | 1 | – | – | 10582 | 6.32e5 | inactive
Obp8a (Odorant-binding protein 8a) | 1 | – | – | 4932 | 3.66e5 | inactive
CG34384 | 1 | – | – | 6206 | 4.06e5 | inactive
CG34384 | 2 | – | – | 6976 | 5.51e5 | inactive
CG34384 | 3 | – | – | 7080 | 4.90e5 | inactive
CG34384 | 4 | – | – | 7726 | 5.34e5 | inactive
CG13004 | 1 | – | – | 4547 | 3.14e5 | inactive
CG31886 | 1 | – | – | 7892 | 7.58e5 | inactive
Spn38F (Serpin 38F) | 1 | – | – | 6742 | 4.37e5 | inactive
Cpr67B (Cuticular protein 67B) | 1 | – | – | 7718 | 4.31e5 | inactive
CG42272 | 1 | – | – | 4107 | 3.47e5 | inactive
CG42272 | 2 | – | – | 3827 | 2.91e5 | inactive
CG32686 | 1 | – | – | 5724 | 4.13e5 | inactive
Tbp (TATA binding protein) | 1 | – | – | 5952 | 3.11e5 | inactive
Tbp (TATA binding protein) | 2 | – | reporter ratio raised past the hit cutoff | 5327 | 3.67e5 | inactive
HemK1 (HemK methyltransferase 1) | 1 | – | – | 42336 | 6.32e5 | inactive
Gr36c (Gustatory receptor 36c) | 1 | – | – | 7877 | 4.23e5 | inactive
NLaz (Neural Lazarillo) | 1 | – | – | 9808 | 6.85e5 | inactive
RpS5b (Ribosomal protein S5b) | 1 | – | – | 7708 | 4.05e5 | inactive
Obp85a (Odorant-binding protein 85a) | 1 | – | – | 6871 | 3.62e5 | inactive
sle + CG12592 | 1 | – | – | 10157 | 4.85e5 | inactive
Max | 1 | – | – | 7760 | 3.36e5 | inactive
CG8065 | 1 | – | – | 6070 | 3.43e5 | inactive
ovo | 1 | – | – | 8354 | 5.90e5 | inactive
ovo | 2 | – | – | 6347 | 3.47e5 | inactive
CR18166 (pseudo) | 1 | – | – | 6335 | 3.80e5 | inactive
CR18166 (pseudo) | 2 | reporter ratio lowered past the hit cutoff | – | 6419 | 6.66e5 | inactive
CG14767 | 1 | – | – | 7687 | 6.12e5 | inactive
CG14324 | 1 | – | – | 8890 | 4.68e5 | inactive
CG31759 | 1 | – | – | 5391 | 4.30e5 | inactive
Dpy-30L2 (Dpy-30-like 2) | 1 | – | – | 6146 | 3.89e5 | inactive
ppk (pickpocket) | 1 | – | – | 7487 | 5.01e5 | inactive
mRpS26 (mitochondrial ribosomal protein S26) | 1 | – | – | 6674 | 3.06e5 | inactive
sel (seele) | 1 | – | – | 5451 | 4.66e5 | inactive
CG12766 | 1 | – | – | 5411 | 3.40e5 | inactive
CG9205 | 1 | – | – | 10962 | 4.44e5 | inactive
l(3)72Dp (lethal (3) 72Dp) | 1 | – | – | 6927 | 3.15e5 | inactive
mRpL49 (mitochondrial ribosomal protein L49) | 1 | – | – | 4747 | 3.72e5 | inactive
Pp1-Y1 (Protein phosphatase 1, Y-linked 1) | 1 | – | – | 3943 | 4.35e5 | inactive
EMC5 (ER membrane protein complex subunit 5) | 1 | – | – | 6028 | 4.37e5 | inactive
Lcp65Af | 1 | – | – | 5818 | 4.97e5 | inactive

Records listed so far whose gene name begins with G or g:
gene knocked down | reagent no. | stable siRNA reporter change | miRNA reporter change | stable assay Renilla, run 1 (luminescence) | stable assay firefly, run 1 (luminescence) | Call
Gr68a (Gustatory receptor 68a) | 1 | – | – | 6087 | 3.65e5 | inactive
GstT3 (Glutathione S transferase T3) | 1 | – | – | 6387 | 3.52e5 | inactive
Gr36c (Gustatory receptor 36c) | 1 | – | – | 7877 | 4.23e5 | inactive

The results go on:
gene knocked down | reagent no. | stable siRNA reporter change | miRNA reporter change | stable assay Renilla, run 1 (luminescence) | stable assay firefly, run 1 (luminescence) | Call
CG12091 | 1 | – | – | 6619 | 3.09e5 | inactive
gom (gomdanji) | 1 | – | – | 7291 | 4.39e5 | inactive
Cpr67Fb (Cuticular protein 67Fb) | 1 | – | – | 5504 | 3.54e5 | inactive
CG16986 | 1 | – | – | 6695 | 3.37e5 | inactive
CG43894 | 1 | – | – | 6376 | 3.41e5 | inactive
Tsp42A (Tetraspanin 42A) | 1 | – | – | 6434 | 4.26e5 | inactive
CG17065 | 1 | – | – | 6511 | 5.21e5 | inactive
CG34167 | 1 | – | – | 5280 | 3.98e5 | inactive
dre4 | 1 | – | – | 5860 | 4.57e5 | inactive
siz (schizo) | 1 | – | – | 6643 | 3.60e5 | inactive
siz (schizo) | 2 | – | – | 8351 | 3.41e5 | inactive
siz (schizo) | 3 | – | – | 9604 | 4.89e5 | inactive
fzy (fizzy) | 1 | – | – | 8047 | 4.46e5 | inactive
CG30281 | 1 | – | – | 21834 | 6.33e5 | inactive
CG9184 | 1 | – | – | 4471 | 3.29e5 | inactive
CG9184 | 2 | – | – | 8846 | 5.02e5 | inactive
RpL10Ab (Ribosomal protein L10Ab) | 1 | – | – | 6199 | 2.82e5 | inactive
Blm + CG14721 | 1 | – | – | 7669 | 5.04e5 | inactive
Obp99d (Odorant-binding protein 99d) | 1 | – | – | 5851 | 4.38e5 | inactive
ex (expanded) | 1 | – | – | 9814 | 2.29e5 | inactive
hng3 (hinge3) | 1 | – | – | 6075 | 3.45e5 | inactive
Ssl1 (Suppressor of stem-loop mutation) | 1 | – | – | 8080 | 3.84e5 | inactive
Ddx1 (Dead-box-1) | 1 | – | – | 9711 | 3.49e5 | inactive
udd (under-developed) | 1 | – | – | 7727 | 4.60e5 | inactive
CG13133 | 1 | – | – | 5771 | 4.05e5 | inactive
SmydA-6 (SET and MYND domain containing, arthropod-specific, member 6) | 1 | – | – | 6652 | 3.00e5 | inactive
CG34316 | 1 | – | – | 4504 | 3.68e5 | inactive
CG8405 | 1 | – | – | 9315 | 4.38e5 | inactive
CG8405 | 2 | – | – | 6322 | 3.47e5 | inactive
Adk2 (Adenosine kinase 2) | 1 | – | – | 8588 | 4.75e5 | inactive
CG8508 | 1 | – | – | 8015 | 4.07e5 | inactive
D19A | 1 | – | reporter ratio raised past the hit cutoff | 8095 | 3.76e5 | inactive
